The text below walks through data of article PMC9173640, “PI Kinase-EhGEF2-EhRho5 axis contributes to LPA stimulated macropinocytosis in Entamoeba histolytica” (PLoS Pathogens, 2022).

The chains behind the UniProt entries cited, without tags or fusion partners. Where a name states a change or a piece, a line headed by the entry shows the natural chain unless it says otherwise.
UniProt Q8C6B2: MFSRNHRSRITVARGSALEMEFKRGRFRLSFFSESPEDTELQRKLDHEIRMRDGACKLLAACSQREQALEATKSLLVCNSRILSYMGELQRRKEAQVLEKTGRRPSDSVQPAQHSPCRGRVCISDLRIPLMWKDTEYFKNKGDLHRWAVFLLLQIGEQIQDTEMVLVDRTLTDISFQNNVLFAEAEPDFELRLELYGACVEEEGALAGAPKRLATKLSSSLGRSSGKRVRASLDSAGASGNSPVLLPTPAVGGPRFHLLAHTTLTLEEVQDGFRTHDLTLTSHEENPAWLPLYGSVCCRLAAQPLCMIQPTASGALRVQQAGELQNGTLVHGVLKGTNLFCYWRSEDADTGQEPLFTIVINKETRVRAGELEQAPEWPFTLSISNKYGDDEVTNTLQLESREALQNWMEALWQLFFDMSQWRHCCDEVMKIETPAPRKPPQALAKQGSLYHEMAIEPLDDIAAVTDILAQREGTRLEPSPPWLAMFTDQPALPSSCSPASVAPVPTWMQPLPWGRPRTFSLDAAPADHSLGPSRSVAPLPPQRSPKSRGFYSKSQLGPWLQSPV
UniProt Q24817: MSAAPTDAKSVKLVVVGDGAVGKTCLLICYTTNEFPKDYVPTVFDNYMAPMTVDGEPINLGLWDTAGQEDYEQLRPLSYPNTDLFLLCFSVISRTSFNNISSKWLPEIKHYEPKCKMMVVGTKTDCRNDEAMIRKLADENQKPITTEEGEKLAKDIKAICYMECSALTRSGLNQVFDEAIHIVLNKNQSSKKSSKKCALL

No constants are given. Whether binding was seen depends on the method and setting. Binding calls can cover weak binding; strength is not graded here.

The test has as its target GST-RBD (Rho binding domain of mRhotekin) (not stated (printed as mRhotekin)) (UniProt Q8C6B2). The test can be described thus: pull-down; 0.1 umole GST-RBD/GST-PBD bound to Sepharose beads incubated with 0.20 umole His-EhRho5 loaded with GMPPNP, 30 min, room temperature; blot with anti-His; both purified.

Turning to His-EhRho5 (from UniProt Q24817), the binding result is reported as “binds”.
